Laboratory results from patent US10047050B2, “3,4-di-substituted pyridine compound, methods of using and compositions comprising the same” (ARDEA BIOSCIENCES, INC., priority 2011, dated 2018).
Several values for one entry are separate records, joined by “and”; a condition that tells them apart may be missing. Equal entries are not always repeated. This continues a long series; more values of the same kind are listed elsewhere.

Test system: serum uric acid
Experiment: Multi-dose Phase I clinical trial, serum uric acid (sUA), once daily for 10 days
Format: in vivo, human
Excerpt: A Phase 1, Randomized, Double-Blind, Placebo-Controlled Study to Evaluate Safety, Tolerability, Pharmacokinetics and Preliminary Food Effect of Multiple Rising Doses of a URAT1 Inhibitor, in Healthy Adult Male Volunteers.
Fasted subjects receive oral doses of active or placebo, once daily, for 10 days, at the following doses:
36 subjects in 3 dose groups, 12 subjects/group, are randomized […] to receive active (9/group) or placebo ([…]). All study procedures are the same regardless of whether subject receives active or placebo. Total duration of subject participation, including screening period, is ˜2-4 weeks, and the total volume of blood collected from each subject during the entire study <500 mL, (less than typically collected during a volunteer blood donation).
5 mg, active and placebo, tablets packaged in 35 count HDPE bottles, stored at controlled room temperature (15-30° C.). Placebo tablets are designed to match the active tablets—identical size, form, taste, and color, and containing the same excipients. 1 mg doses were administered as oral solutions.
Subjects dosed in the morning of Days 1-10 with ˜240 mL of room temp water.
Urine, serum and plasma samples collected periodically
PD samples frozen (−20° C.) and stored; all samples from a given subject assayed in a single analytical run.

[1] = Time 240, post dosing, group 9, 10 mg once daily for 10 days, individual subjects 3-11 (active)
[2] = Time 246, post dosing, group 9, 10 mg once daily for 10 days, individual subjects 3-11 (active)
[3] = Time 252, post dosing, group 9, 10 mg once daily for 10 days, individual subjects 3-11 (active)
[4] = Time 264, post dosing, group 9, 10 mg once daily for 10 days, individual subjects 3-11 (active)
[5] = Time 270, post dosing, group 9, 10 mg once daily for 10 days, individual subjects 3-11 (active)
[6] = Time 288, post dosing, group 9, 10 mg once daily for 10 days, individual subjects 3-11 (active)
[7] = Time 312, post dosing, group 9, 10 mg once daily for 10 days, individual subjects 3-11 (active)
[8] = group 7, 1 mg once daily for 10 days, Time 0, individual subjects 4-12
[9] = group 7, 1 mg once daily for 10 days, Time 6, individual subjects 4-12
[10] = group 7, 1 mg once daily for 10 days, Time 12, individual subjects 4-12
[11] = group 7, 1 mg once daily for 10 days, Time 24, individual subjects 4-12
[12] = group 7, 1 mg once daily for 10 days, Time 48, individual subjects 4-12
[13] = group 7, 1 mg once daily for 10 days, Time 72, individual subjects 4-12

CC(C)(Sc1ccncc1-c1ccc(C#N)c2ccccc12)C(=O)O [2-((3-(4-cyanonaphthalen-1-yl)pyridin-4-yl)thio)-2-methylpropanoic acid]
Absolute sUA concentration (Time 228, post dosing, group 9, 10 mg once daily for 10 days, individual subjects 3-11 (active)): 2.7 mg/dL and 2.3 mg/dL (2×) and 3.7 mg/dL and 2.4 mg/dL and 2.1 mg/dL and 2.9 mg/dL and 2.5 mg/dL and 3.1 mg/dL | % sUA change (from baseline) [1]: −55.6% and −48.1% and −38.7% and −50.7% and −60.3% and −62.1% and −35.9% and −50.0% and −35.7% | Absolute sUA concentration [1]: 2.4 mg/dL and 2.7 mg/dL (2×) and 4.9 mg/dL and 3.6 mg/dL (2×) and 2.5 mg/dL and 4.1 mg/dL and 3.1 mg/dL | % sUA change (from baseline) [2]: −53.7% and −40.4% and −32.5% and −50.7% and −52.9% and −51.5% and −32.8% and −41.9% and −28.6% | Absolute sUA concentration [2]: 2.5 mg/dL and 3.1 mg/dL and 5.4 mg/dL and 3.6 mg/dL (2×) and 3.2 mg/dL (2×) and 4.3 mg/dL and 4.0 mg/dL | % sUA change (from baseline) [3]: −50.0% and −44.2% and −33.8% and −54.8% and −54.4% and −53.0% and −31.3% and −37.1% and −33.9% | Absolute sUA concentration [3]: 2.7 mg/dL and 2.9 mg/dL and 5.3 mg/dL and 3.3 mg/dL and 3.1 mg/dL (2×) and 4.4 mg/dL and 3.9 mg/dL and 3.7 mg/dL | % sUA change (from baseline) [4]: −50.0% (2×) and −38.5% and −28.8% and −50.7% and −43.9% and −23.4% and −32.3% and −32.1% | Absolute sUA concentration [4]: 2.7 mg/dL and 3.2 mg/dL and 5.7 mg/dL and 3.6 mg/dL and 3.4 mg/dL and 3.7 mg/dL and 4.9 mg/dL and 4.2 mg/dL and 3.8 mg/dL | % sUA change (from baseline) [5]: −50.0% and −38.5% and −28.8% and −47.9% and −48.5% and −36.4% and −20.3% and −25.8% and −28.6% | Absolute sUA concentration [5]: 2.7 mg/dL and 3.2 mg/dL and 5.7 mg/dL and 3.8 mg/dL and 3.5 mg/dL and 4.2 mg/dL and 5.1 mg/dL and 4.6 mg/dL and 4.0 mg/dL | % sUA change (from baseline) [6]: −48.1% and −36.5% and −28.8% and −45.2% and −45.6% and −33.3% and −25.0% and −22.6% and −30.4% | Absolute sUA concentration [6]: 2.8 mg/dL and 3.3 mg/dL and 5.7 mg/dL and 4.0 mg/dL and 3.7 mg/dL and 4.4 mg/dL and 4.8 mg/dL (2×) and 3.9 mg/dL | % sUA change (from baseline) [7]: −38.9% and −26.9% and −18.8% and −34.2% and −36.8% and −24.2% and −14.1% and −16.1% and −23.2% | Absolute sUA concentration [7]: 3.3 mg/dL and 3.8 mg/dL and 6.5 mg/dL and 4.8 mg/dL and 4.3 mg/dL (2×) and 5.0 mg/dL and 5.5 mg/dL and 5.2 mg/dL | % sUA change (from baseline) [8]: 0% | Absolute sUA concentration [8]: 5.8 mg/dL and 5.6 mg/dL and 5.4 mg/dL and 7.0 mg/dL and 6.9 mg/dL and 6.7 mg/dL and 6.2 mg/dL and 6.0 mg/dL and 5.9 mg/dL | % sUA change (from baseline) [9]: −5.2% and −1.8% and −3.7% and −1.4% (2×) and 0.0% (2×) and −11.7% and −1.7% | Absolute sUA concentration [9]: 5.5 mg/dL (2×) and 5.2 mg/dL and 6.9 mg/dL and 6.8 mg/dL and 6.7 mg/dL and 6.2 mg/dL and 5.3 mg/dL and 5.8 mg/dL | % sUA change (from baseline) [10]: −12.1% and −10.7% and −9.3% and −5.7% and −7.2% and −9.0% and −1.6% and −16.7% and −10.2% | Absolute sUA concentration [10]: 5.1 mg/dL and 5.0 mg/dL (2×) and 4.9 mg/dL and 6.6 mg/dL and 6.4 mg/dL and 6.1 mg/dL (2×) and 5.3 mg/dL | % sUA change (from baseline) [11]: 0.0% and 5.4% and 1.9% and 1.4% and −4.3% and 1.5% and 8.1% and −3.3% and 1.7% | Absolute sUA concentration [11]: 5.8 mg/dL (2×) and 5.9 mg/dL and 5.5 mg/dL and 7.1 mg/dL and 6.6 mg/dL and 6.8 mg/dL and 6.7 mg/dL and 6.0 mg/dL | % sUA change (from baseline) [12]: −12.1% and −35.7% and −11.1% and −14.3% and −15.9% and −19.4% and −11.3% and −21.7% and −16.9% | Absolute sUA concentration [12]: 5.1 mg/dL and 3.6 mg/dL and 4.8 mg/dL and 6.0 mg/dL and 5.8 mg/dL and 5.4 mg/dL and 5.5 mg/dL and 4.7 mg/dL and 4.9 mg/dL | % sUA change (from baseline) [13]: −8.6% and 0.0% (4×) and −1.9% and −4.3% and −7.5% and −8.3% | Absolute sUA concentration [13]: 5.3 mg/dL (2×) and 5.6 mg/dL and 7.0 mg/dL and 6.6 mg/dL and 6.2 mg/dL (2×) and 5.5 mg/dL and 5.9 mg/dL | % sUA change (from baseline) (group 7, 1 mg once daily for 10 days, Time 96, individual subjects 4-12): −13.8% and −8.9% and −5.6% and −4.3% and −2.9% and −9.0% and −3.2% and −16.7% and −6.8% | % sUA change (from baseline) (group 7, 1 mg once daily for 10 days, Time 102, individual subjects 4-12): −24.1% and −12.5% and −9.3% and −11.4% and −10.1% and −11.9% and −8.1% and −23.3% and −8.5% | % sUA change (from baseline) (group 7, 1 mg once daily for 10 days, Time 108, individual subjects 4-12): −29.3% and −21.4% and −11.1% and −12.9% and −14.5% and −19.4% and −9.7% and −28.3% and −15.3% | % sUA change (from baseline) (group 7, 1 mg once daily for 10 days, Time 120, individual subjects 4-12): −20.7% and −10.7% and −9.3% and −5.7% and −10.1% and −7.5% and −6.5% and −16.7% and −5.1% | % sUA change (from baseline) (group 7, 1 mg once daily for 10 days, Time 144, individual subjects 4-12): −20.7% and −10.7% and −11.1% and −7.1% and −10.1% and −9.0% and −6.5% and −16.7% and −6.8%
